Measurements as given in US6528283.
Results are given in words; binding and its absence hold for the method and conditions named. Binding seen in cells or lysates may run through a third protein. Some results given as binding are weak or reduced against the parent protein; the word gives no strength. Tags and fused reporters may be left off the sequences shown.

By UniProt entry, the sequences of proteins in these tests, tags left out. Where a name states a change or a piece, a line headed by the entry shows the natural chain unless it says otherwise.
UniProt P55327: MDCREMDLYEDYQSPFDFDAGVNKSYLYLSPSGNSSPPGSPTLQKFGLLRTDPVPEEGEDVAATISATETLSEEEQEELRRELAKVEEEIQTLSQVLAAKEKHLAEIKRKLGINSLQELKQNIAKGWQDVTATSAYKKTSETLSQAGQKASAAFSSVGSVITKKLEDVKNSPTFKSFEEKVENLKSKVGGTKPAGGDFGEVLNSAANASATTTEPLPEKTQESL
UniProt O43399: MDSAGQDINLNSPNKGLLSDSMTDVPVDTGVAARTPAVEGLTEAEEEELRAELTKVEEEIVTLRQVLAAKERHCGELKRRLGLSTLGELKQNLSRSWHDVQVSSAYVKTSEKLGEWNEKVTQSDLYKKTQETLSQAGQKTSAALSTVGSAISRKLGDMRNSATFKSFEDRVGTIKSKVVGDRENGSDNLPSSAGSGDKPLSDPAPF

What was measured:
[1] = target: T1, in vitro-translated ^35S-labelled hD52 (pTL1hD52) (human) (UniProt P55327); experiment: GST pull-down, ^35S-labelled in vitro-translated protein, autoradiography
T1 sequence (chain, ^35S-Methionine labelled): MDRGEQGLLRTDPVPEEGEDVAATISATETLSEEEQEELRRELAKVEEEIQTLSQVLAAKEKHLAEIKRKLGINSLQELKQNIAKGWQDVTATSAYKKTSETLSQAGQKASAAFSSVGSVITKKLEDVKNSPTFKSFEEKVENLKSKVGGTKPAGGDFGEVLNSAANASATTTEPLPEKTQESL

[2] = target: in vitro-translated ^35S-labelled hD54-ins2 (pTL1hD54-ins2) (human) (UniProt O43399); experiment: as above

binding [1]: binds | binding [2]: binds
B1: Recombinant GST-mD52 (N-terminally GST-tagged full-length mD52 with C-terminal 6-histidine tag, pGEX3XmD52-6His) (protein, not shown: a dimerising Fc or GST)
chain: MDRGEQGLLKTEPVAEEGEDAVTMLSAPEALTEEEQEELRRELTKVEEEIQTLSQVLAAKEKHLAELKRKLGISSLQEFKQNIAKGWQDVTATNAYKKTSETLSQAGQKASAAFSSVGSVITKKLEDVKNSPTFKSFEEKVENLKSKVGGAKPAGGDFGEVLNSTANATSTMTTEPPPEQMTESPHHHHHH
